# Several values for one entry are separate records, joined by “and”; a condition that tells them apart may be missing. Equal values may be shown once. The list shows a part of the results. For some assays here: The source does not settle which construct or isoform was used.
# Key:
# Assay in all cases: protein microarray (ProtoArray v5.0), streptavidin-Alexa Fluor 647
# Conditions in all cases: 3'-biotin; 20 mM Tris (pH 7.5), 5 mM MgCl2, 100 mM KCl, 0.1% Tween-20, A/T-rich and random oligonucleotide blockers; temperature not stated; high values mean tight binding
# JOSD2 (human) = test system: JOSD2 (human)
# JTB (human) = test system: JTB (human)
# [1] = test system: JmjC domain-containing protein 4 (human)
# Josephin-1 (human) = test system: Josephin-1 (human)
# [2] = test system: Junction plakoglobin (human)
# [3] = test system: Junctional adhesion molecule C (human)
# KCNA6 (human) = test system: KCNA6 (human)
# KCNE1L (human) = test system: KCNE1L (human)
# KCNIP1 (human) = test system: KCNIP1 (human)
# KCNIP2 (human) = test system: KCNIP2 (human)
# KCNK7 (human) = test system: KCNK7 (human)
# KCNN3 (human) = test system: KCNN3 (human)
# KCNRG = molecular target: T1, KCNRG (UniProt Q8N5I3)
# T1 sequence: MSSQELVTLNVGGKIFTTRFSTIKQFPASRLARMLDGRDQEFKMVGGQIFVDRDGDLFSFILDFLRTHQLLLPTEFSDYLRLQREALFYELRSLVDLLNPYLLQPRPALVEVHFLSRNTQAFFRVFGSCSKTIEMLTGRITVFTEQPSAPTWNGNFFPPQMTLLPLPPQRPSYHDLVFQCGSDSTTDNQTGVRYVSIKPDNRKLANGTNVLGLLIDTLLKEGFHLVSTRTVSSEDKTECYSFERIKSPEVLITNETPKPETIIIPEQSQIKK
# KCNS2 (human) = test system: KCNS2 (human)
# KCTD10 (human) = test system: KCTD10 (human)
# KCTD7 (human) = test system: KCTD7 (human)
# KEL (human) = test system: KEL (human)
# KHK (human) = test system: KHK (human)
# KIAA0157 (human) = test system: KIAA0157 (human)
# KIAA0174 (human) = test system: KIAA0174 (human)
sequence,measurement,setting,value
GGGAGGCTGAGGCAGG [G4-1 biotinylated (PQS2)],binding signal,JOSD2 (human),-0.29 z-score
same,binding signal,JTB (human),-0.314 z-score and -0.25 z-score
same,binding signal,[1],-0.342 z-score
same,binding signal,Josephin-1 (human),-0.335 z-score
same,binding signal,[2],-0.342 z-score
same,binding signal,[3],-0.341 z-score
same,binding signal,KCNA6 (human),-0.27 z-score
same,binding signal,KCNE1L (human),-0.353 z-score
same,binding signal,KCNIP1 (human),-0.357 z-score
same,binding signal,KCNIP2 (human),-0.35 z-score and -0.361 z-score and -0.322 z-score
same,binding signal,KCNK7 (human),-0.331 z-score
same,binding signal,KCNN3 (human),-0.274 z-score
same,binding signal,KCNRG,-0.325 z-score
same,binding signal,KCNS2 (human),-0.346 z-score
same,binding signal,KCTD10 (human),-0.29 z-score
same,binding signal,KCTD7 (human),-0.279 z-score
same,binding signal,KEL (human),-0.28 z-score
same,binding signal,KHK (human),-0.353 z-score
same,binding signal,KIAA0157 (human),-0.296 z-score
same,binding signal,KIAA0174 (human),-0.344 z-score

# Shown with tabs: entries from further up
sequence	measurement	setting	value
GGGAGGCTGAGGCAGG [G4-1 biotinylated (PQS2)]	binding signal	KCNE1L (human)	-0.353 z-score
same	binding signal	KCNK7 (human)	-0.331 z-score

# From paper PMC5996148
